This note sets out measurements from the supplement of paper PMC7024190.

Structures can show the parent of a compound that is named as a salt. Some of the results follow. Single values are uncertain here, since repeats match poorly.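 Human embryonic kidney cells were transiently transfected with a plasmid bearing a Renilla luciferase gene under the HSV-TK promoter. This first-round screen tests roughly ten thousand compounds for ones that increase reporter output.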

For this assay, the system named is HEK 293FT. Put plainly: log relative Renilla luciferase luminescence (reporter expression vs reference, reference not stated) (log (base not stated)); higher = higher recombinant reporter expression. The settings on record: 10 µM; time after transfection 48 h.
Take `CC(=O)NCCCS(=O)(=O)O` [Acamprosate calcium]: the log was determined as 0.0626.
In the case of `CCOC(=O)O[C@]1(C(=O)COC(=O)CC)CC[C@H]2[C@@H]3CCC4=CC(=O)C=C[C@]4(C)[C@H]3[C@@H](O)C[C@@]21C` [Prednicarbate] it was 0.03.
In the case of `C=C1c2c(Cl)ccc(O)c2C(=O)C2=C(O)[C@]3(O)C(=O)C(C(N)=O)=C(O)[C@@H](N(C)C)[C@@H]3[C@@H](O)[C@H]12.O=C(O)c1cc(S(=O)(=O)O)ccc1O` [Meclocycline sulfosalicylate] it was 0.0324.
As for `CC(C)(C)NCC(O)COc1cccc2c1CCC(=O)N2` (centres undefined) [Carteolol hydrochloride], the figure is -0.0656; as for `Nc1nc2ccc(OC(F)(F)F)cc2s1` [Riluzole hydrochloride], -0.0437; as for `COc1ccc2c(c1)c(CC(=O)O)c(C)n2C(=O)c1ccc(Cl)cc1` [Indomethacin], 0.0344.
Take `C(=C\c1ccccc1)/CN1CCN(C(c2ccccc2)c2ccccc2)CC1` [Cinnarizine]: the log is -0.0681.
As for `O=C(C1CCCCC1)N1CC(=O)N2CCc3ccccc3C2C1` (centres undefined) [Praziquantel], the figure is 0.0303; as for `CC(=O)c1ccc2c(c1)N(CCCN(C)C)c1ccccc1S2` [Acetopromazine maleate salt], 0.00301; as for `CN(C)CCOC(C)(c1ccccc1)c1ccccn1` (centres undefined) [Doxylamine succinate], 0.0221.
In the case of `CC(C)(C#N)c1cc(Cn2cncn2)cc(C(C)(C)C#N)c1` [Anastrozole] it was -0.203; in that of `Oc1c(I)cc(Cl)c2cccnc12` [Clioquinol], 0.0751.
As for `Nc1ccn([C@H]2CC[C@@H](CO)O2)c(=O)n1` [Zalcitabine], the figure is 0.0404; as for `CN(C(=O)C(Cl)Cl)c1ccc(OC(=O)c2ccco2)cc1` [Diloxanide furoate], 0.00934.
Regarding `CN(C)CCN1C(=O)c2ccccc2N(C)c2ccccc21` [Dibenzepine hydrochloride], the log was -0.0656.
In the case of `COc1ccc(OC)c(C(O)CNC(=O)CN)c1` (centres undefined) [Midodrine hydrochloride] it was 0.17; in that of `CN1CCN(CCCN2c3ccccc3Sc3ccc(C(F)(F)F)cc32)CC1` [Trifluoperazine dihydrochloride], 0.0283.
In the case of `CC[C@H](C)[C@H](N)C1=N[C@H](C(=O)N[C@@H](CC(C)C)C(=O)N[C@H](CCC(=O)O)C(=O)N[C@H](C(=O)N[C@H]2CCCCNC(=O)[C@H](CC(N)=O)NC(=O)[C@@H](CC(=O)O)NC(=O)[C@H](Cc3cnc[nH]3)NC(=O)[C@@H](Cc3ccccc3)NC(=O)[C@H]([C@@H](C)CC)NC(=O)[C@@H](CCCN)NC2=O)[C@@H](C)CC)CS1` [Bacitracin] it was 0.156.
As for `Oc1c(Cl)cc(Cl)c(Cl)c1Cc1c(O)c(Cl)cc(Cl)c1Cl` [Hexachlorophene], the figure is -1.3; as for `Cc1c(N(C)C)c(=O)n(-c2ccccc2)n1C` [Amidopyrine], -0.0492.
For `COc1ccc(/C=C/C(=O)Nc2ccccc2C(=O)O)cc1OC` [Tranilast], the log was -0.0739.
In the case of `CCOC(=O)C1=C(COCCN)NC(C)=C(C(=O)OC)C1c1ccccc1Cl` (centres undefined) [Amlodipine], the log was -0.00821.
In the case of `CN1[C@@H]2CC[C@H]1C[C@@H](OC(=O)c1c[nH]c3ccccc13)C2` [Tropisetron HCl] it was 0.0581; in that of `Cc1cccc(C)c1OCC(C)N` (centres undefined) [Mexiletine hydrochloride], -0.588.
As for `COc1ccccc1OCC(O)CO` (centres undefined) [Guaifenesin], the figure is -0.0762; as for `NC[C@@H]1O[C@H](O[C@H]2[C@@H](O)[C@H](O[C@@H]3[C@@H](O)[C@H](N)C[C@H](N)[C@H]3O[C@H]3O[C@H](CO)[C@@H](O)[C@H](O)[C@H]3N)O[C@@H]2CO)[C@H](N)[C@@H](O)[C@@H]1O` [Paromomycin sulfate], -0.0369; as for `CC(=O)[C@H]1CC[C@H]2[C@@H]3C=CC4=CC(=O)CC[C@@]4(C)[C@@H]3CC[C@]12C` [Dydrogesterone], -0.777.
In the case of `C[C@H]1O[C@@H](O[C@H]2[C@@H](O)C[C@H](O[C@H]3[C@@H](O)C[C@H](O[C@H]4CC[C@@]5(C)[C@H](CC[C@@H]6[C@@H]5C[C@@H](O)[C@]5(C)[C@@H](C7=CC(=O)OC7)CC[C@]65O)C4)O[C@@H]3C)O[C@@H]2C)C[C@H](O)[C@@H]1O` [Digoxin] it was -1.02.
In the case of `COc1cc([S+](C)[O-])ccc1-c1nc2cccnc2[nH]1` (centres undefined) [Sulmazole], the log was -1.34.
As for `CC(C(=O)O)c1ccc(-c2ccccc2)c(F)c1` (centres undefined) [Flurbiprofen], the figure is 0.131; as for `O=C(OCC(O)CO)c1ccccc1Nc1ccnc2cc(Cl)ccc12` (centres undefined) [Glafenine hydrochloride], -0.192; as for `CN(C)C(=O)C(CCN1CCC(O)(c2ccc(Cl)cc2)CC1)(c1ccccc1)c1ccccc1` [Loperamide hydrochloride], 0.102.
As for `Cc1cccc(C)c1NC(=O)C(C)N` (centres undefined) [Tocainide hydrochloride], the figure is 0.0384; as for `CC(C(=O)O)c1ccc2c(c1)[nH]c1ccc(Cl)cc12` (centres undefined) [Carprofen], 0.109; as for `CCCCc1cc2ccccc2c(OCCN(C)C)n1` [Dimethisoquin hydrochloride], -0.18.
In the case of `Cc1c(-c2ccccc2)oc2c(C(=O)OCCN3CCCCC3)cccc2c1=O` [Flavoxate hydrochloride] it was 0.0896.
Consider `CN[C@@H]1[C@@H](O[C@H]2O[C@H](CO)[C@@H](N)[C@H](O)[C@H]2O)OC2C[C@@H](N)[C@@H](O[C@H]3[C@H](O)[C@@H](O)[C@H](N)C[C@@H]3N)OC2[C@@H]1O` (some centres undefined) [Apramycin], for which the log was -0.0605.
As for `C#Cc1cccc(Nc2ncnc3cc(OCCOC)c(OCCOC)cc23)c1` [Erlotinib], the figure is -0.169; as for `N[C@@H](C(=O)N[C@@H]1C(=O)N2C(C(=O)O)=C(Cl)CC[C@H]12)c1ccccc1` [Loracarbef], -0.211.
Consider `Cc1onc(-c2ccccc2Cl)c1C(=O)N[C@@H]1C(=O)N2[C@@H]1SC(C)(C)[C@@H]2C(=O)O` [Cloxacillin sodium salt], for which the log came out at 0.141.
Turning to `N#Cc1ccc(C2CCCc3cncn32)cc1` (centres undefined) [Fadrozole hydrochloride], the log was determined as 0.0612.
In the case of `CN[C@@H]1[C@H](O)[C@H](NC)[C@H]2O[C@@]3(O)C(=O)C[C@@H](C)O[C@H]3O[C@@H]2[C@H]1O` [Spectinomycin dihydrochloride] it was -0.145; in that of `NS(=O)(=O)c1cc2c(cc1Cl)NC(C(Cl)Cl)NS2(=O)=O` (centres undefined) [Trichlormethiazide], -0.285.
As for `COc1ccccc1Oc1c(NS(=O)(=O)c2ccc(C(C)(C)C)cc2)nc(-c2ncccn2)nc1OCCO` [Bosentan], the figure is -0.283; as for `Nc1ccccc1S(N)(=O)=O` [2-Aminobenzenesulfonamide], 0.159; as for `CC(C)[N+](C)(CCOC(=O)C1c2ccccc2Oc2ccccc21)C(C)C` [Propantheline bromide], -0.156.
Regarding `CN(C)CCC=C1c2ccccc2COc2ccccc21` [Doxepin hydrochloride], the log is 0.0949.
In the case of `O=C(N[C@H](CO)[C@H](O)c1ccc([N+](=O)[O-])cc1)C(Cl)Cl` [Chloramphenicol] it was -0.296; in that of `CCC[C@@H]1C[C@@H](C(=O)N[C@@H]([C@H]2O[C@H](SC)[C@H](O)[C@@H](O)[C@H]2O)[C@H](C)Cl)N(C)C1` [Clindamycin hydrochloride], 0.0669.
As for `Cc1ccc2c(c1)c1c3n2CCNC3CCC1` (centres undefined) [Pirlindole mesylate], the figure is -0.1; as for `C=C1/C(=C\C=C2/CCC[C@]3(C)[C@@H]([C@H](C)CCCC(C)C)CC[C@@H]23)C[C@@H](O)C[C@@H]1O` [Alfacalcidol], -0.395.
As for `CN(C)C/C=C(/c1ccc(Br)cc1)c1cccnc1` [Zimelidine dihydrochloride monohydrate], the figure is -0.506; as for `CC(C)(CO)C(O)C(=O)NCCCO` (centres undefined) [Panthenol (D)], 0.00284; as for `CCOc1ccc2ccccc2c1C(=O)N[C@@H]1C(=O)N2[C@@H]1SC(C)(C)[C@@H]2C(=O)O` [Nafcillin sodium salt monohydrate], -0.116.
Consider `CCN(CC)CCNC(=O)c1cc(Cl)c(N)cc1OC` [Metoclopramide monohydrochloride], for which the log is 0.093.
In the case of `Cn1cnc2c1c(=O)[nH]c(=O)n2C` [Theobromine] it was -0.0428; in that of `C1CCC(C(CC2CCCCN2)C2CCCCC2)CC1` (centres undefined) [Perhexiline maleate], -0.114.
As for `CC(=O)[C@@]1(O)CC[C@H]2[C@@H]3C[C@H](C)C4=CC(=O)C=C[C@]4(C)[C@@]3(F)[C@@H](O)C[C@@]21C` [Fluorometholone], the figure is 0.294; as for `CCc1nc(N)nc(N)c1-c1ccc(Cl)cc1` [Pyrimethamine], 0.0949; as for `CC(C)NCC(O)COc1ccc(CCOCC2CC2)cc1` (centres undefined) [Betaxolol hydrochloride], -0.0382.
In the case of `COc1cc(C(=O)NCc2ccc(OCCN(C)C)cc2)cc(OC)c1OC` [Trimethobenzamide hydrochloride] it was 0.0824; in that of `COc1ccc(-c2cc(=S)ss2)cc1` [Anethole-trithione], -0.103.
As for `O=C(O)c1cn(C2CC2)c2cc(N3CCNCC3)c(F)cc2c1=O` [Ciprofloxacin hydrochloride hydrate], the log is -0.0171.
As for `Cc1ccc(NC(=O)c2ccc(CN3CCN(C)CC3)cc2)cc1Nc1nccc(-c2cccnc2)n1` [Imatinib], the figure is 0.0324; as for `CCCC1C(=O)N2C(N(C)C)=Nc3ccc(C)cc3N2C1=O` (centres undefined) [Azapropazone], -0.144.
As for `Clc1ccc(C(Cn2ccnc2)OCc2ccsc2Cl)c(Cl)c1` (centres undefined) [Tioconazole], the figure is -0.13; as for `c1cnc(N2CCN(Cc3ccc4c(c3)OCO4)CC2)nc1` [Piribedil hydrochloride], 0.00502; as for `C[C@](N)(Cc1ccc(O)c(O)c1)C(=O)O` [Methyldopa (L,-)], -0.124.
As for `C[C@H]1c2cccc(O)c2C(=O)C2=C(O)[C@]3(O)C(=O)C(C(N)=O)=C(O)[C@@H](N(C)C)[C@@H]3[C@@H](O)[C@@H]21` [Doxycycline hydrochloride], the figure is -0.849.
